{
  "source": "paper PMC11476781",
  "binders": {"B1": {"name": "G104C-IBA57 (protein, UniProt Q5T440 44-352)", "chain": "AGAAWACFRLDGRTLLRVRGPDAAPFLLGLLTNELPLPSPAAAGAPPAARAGYAHFLNVQCRTLYDVILYGLQEHSEVSGFLLECDSSVQGALQKHLALYRIRRKVTVEPHPELRVWAVLPSSPEACGAASLQERAGAAAILIRDPRTARMGWRLLTQDEGPALVPGGRLGDLWDYHQHRYLQGVPEGVRDLPPGVALPLESNLAFMNGVSFTKGCYIGQELTARTHHMGVIRKRLFPVRFLDPLPTSGITPGATVLTASGQTVGKFRAGQGNVGLALLWSEKIKGPLHIRASEGAQVALAASVPDWWP"}},
  "molecular_target": "G104C-IBA57 (human) (UniProt Q5T440)",
  "test": "SEC-MALS; Superdex 200 Increase 10/300 GL coupled to MALS (DAWN HELEOS); samples 20–50 μM; deoxygenated 50 mM sodium phosphate pH 7.0, 200 mM NaCl, 5 mM DTT; 0.7 mL/min; both purified",
  "note": "No constants are given. Whether binding was seen depends on the method and setting.",
  "data": [
    {"binder": "B1", "values": [
      {"measurement": "binding", "result": "no binding (tested: 20–50 μM)"}
    ]}
  ]
}
